# Measurements as given in paper doi:10.1101/2024.12.21.629933.
# Chains of the proteins cited; added tags and fusions are not shown. Residues count along the entry.
# UniProt P16070, residues 21-742: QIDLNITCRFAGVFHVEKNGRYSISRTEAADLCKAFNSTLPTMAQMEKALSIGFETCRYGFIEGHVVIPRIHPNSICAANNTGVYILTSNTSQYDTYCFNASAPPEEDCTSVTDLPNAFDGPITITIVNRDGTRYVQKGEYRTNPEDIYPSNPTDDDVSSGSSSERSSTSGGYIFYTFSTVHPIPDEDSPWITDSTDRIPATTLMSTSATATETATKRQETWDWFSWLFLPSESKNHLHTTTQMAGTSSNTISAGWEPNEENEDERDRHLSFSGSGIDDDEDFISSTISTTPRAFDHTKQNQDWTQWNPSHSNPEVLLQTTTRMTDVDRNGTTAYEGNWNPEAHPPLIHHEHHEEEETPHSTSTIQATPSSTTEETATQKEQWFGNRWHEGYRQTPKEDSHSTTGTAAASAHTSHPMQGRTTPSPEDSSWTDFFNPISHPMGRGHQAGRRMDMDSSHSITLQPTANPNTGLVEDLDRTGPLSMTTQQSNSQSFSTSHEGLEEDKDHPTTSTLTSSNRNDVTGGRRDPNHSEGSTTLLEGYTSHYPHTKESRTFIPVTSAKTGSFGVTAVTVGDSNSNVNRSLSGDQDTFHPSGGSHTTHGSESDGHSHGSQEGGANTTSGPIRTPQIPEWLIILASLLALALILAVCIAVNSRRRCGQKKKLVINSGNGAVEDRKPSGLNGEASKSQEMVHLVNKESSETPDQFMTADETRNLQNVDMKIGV
# UniProt P62330: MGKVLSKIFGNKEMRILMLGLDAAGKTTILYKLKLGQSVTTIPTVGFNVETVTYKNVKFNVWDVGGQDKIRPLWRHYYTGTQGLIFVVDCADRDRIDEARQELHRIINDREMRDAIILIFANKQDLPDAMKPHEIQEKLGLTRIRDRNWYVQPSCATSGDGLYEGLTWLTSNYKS
# UniProt P52630: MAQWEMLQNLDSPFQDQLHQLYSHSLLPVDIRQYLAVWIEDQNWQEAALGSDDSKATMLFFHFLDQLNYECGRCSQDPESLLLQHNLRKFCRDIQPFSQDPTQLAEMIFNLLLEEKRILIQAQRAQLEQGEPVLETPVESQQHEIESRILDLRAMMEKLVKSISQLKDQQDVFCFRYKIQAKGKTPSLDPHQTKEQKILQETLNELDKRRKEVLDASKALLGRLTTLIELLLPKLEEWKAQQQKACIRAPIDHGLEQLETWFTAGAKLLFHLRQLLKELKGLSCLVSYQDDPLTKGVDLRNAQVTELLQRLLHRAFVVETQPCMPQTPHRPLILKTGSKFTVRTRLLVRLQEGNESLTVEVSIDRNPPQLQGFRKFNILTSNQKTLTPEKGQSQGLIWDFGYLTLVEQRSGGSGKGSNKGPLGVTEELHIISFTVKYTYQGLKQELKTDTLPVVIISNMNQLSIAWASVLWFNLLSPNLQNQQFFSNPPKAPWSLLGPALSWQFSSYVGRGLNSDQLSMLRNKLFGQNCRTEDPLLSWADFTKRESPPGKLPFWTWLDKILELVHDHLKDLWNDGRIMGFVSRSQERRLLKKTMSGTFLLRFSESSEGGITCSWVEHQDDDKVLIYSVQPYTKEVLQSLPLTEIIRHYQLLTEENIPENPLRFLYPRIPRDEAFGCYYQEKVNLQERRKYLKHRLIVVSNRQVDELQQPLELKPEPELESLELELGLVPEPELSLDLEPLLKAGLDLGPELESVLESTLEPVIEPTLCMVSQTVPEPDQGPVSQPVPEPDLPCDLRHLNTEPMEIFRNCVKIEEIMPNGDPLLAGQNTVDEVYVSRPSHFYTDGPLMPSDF
# Like-named read-outs stand apart in the source and are kept apart here. These are yes or no findings as the source states them, for the method shown. In cells and extracts the contact can be indirect. A yes stands for co-enrichment or nearness to the bait. Other partners may have been found.
# Tests used:
# Experiment in all cases: proximity labelling
# [1] = target: Flag-EGFR (full-length epidermal growth factor receptor with an extracellular N-terminal Flag-tag) (UniProt P00533)
# [2] = target: EGFR-HaloTag (Flag-EGFR-HaloTag; full-length EGFR with an intracellular C-terminal HaloTag) (UniProt P00533)
# [3] = target: Flag-EGFR (full-length epidermal growth factor receptor with an extracellular N-terminal Flag-tag) (UniProt P00533); remark: listed apart in the source
Molecule,binding [1],binding [2],binding [3]
CD44 (from UniProt P16070 21-742),binds,,
β-catenin (CTNNB) (from UniProt P35222 1-781),binds,binds,
integrin A2 (ITA2) (from UniProt P17301 30-1181),binds,binds,
ADP-ribosylation factor ARF6 (from UniProt P62330 1-175),binds,binds,
STAT2 (from UniProt P52630 1-851),binds,,
"Dynamin1 (DYN1) (protein, UniProt Q05193 1-864) MGNRGMEDLIPLVNRLQDAFSAIGQNADLDLPQIAVVGGQSAGKSSVLENFVGRDFLPRGSGIVTRRPLVLQLVNATTEYAEFLHCKGKKFTDFEEVRLEIEAETDRVTGTNKGISPVPINLRVYSPHVLNLTLVDLPGMTKVPVGDQPPDIEFQIRDMLMQFVTKENCLILAVSPANSDLANSDALKVAKEVDPQGQRTIGVITKLDLMDEGTDARDVLENKLLPLRRGYIGVVNRSQKDIDGKKDITAALAAERKFFLSHPSYRHLADRMGTPYLQKVLNQQLTNHIRDTLPGLRNKLQSQLLSIEKEVEEYKNFRPDDPARKTKALLQMVQQFAVDFEKRIEGSGDQIDTYELSGGARINRIFHERFPFELVKMEFDEKELRREISYAIKNIHGIRTGLFTPDMAFETIVKKQVKKIREPCLKCVDMVISELISTVRQCTKKLQQYPRLREEMERIVTTHIREREGRTKEQVMLLIDIELAYMNTNHEDFIGFANAQQRSNQMNKKKTSGNQDEILVIRKGWLTINNIGIMKGGSKEYWFVLTAENLSWYKDDEEKEKKYMLSVDNLKLRDVEKGFMSSKHIFALFNTEQRNVYKDYRQLELACETQEEVDSWKASFLRAGVYPERVGDKEKASETEENGSDSFMHSMDPQLERQVETIRNLVDSYMAIVNKTVRDLMPKTIMHLMINNTKEFIFSELLANLYSCGDQNTLMEESAEQAQRRDEMLRMYHALKEALSIIGDINTTTVSTPMPPPVDDSWLQVQSVPAGRRSPTSSPTPQRRAPAVPPARPGSRGPAPGPPPAGSALGGAPPVPSRPGASPDPFGPPPQVPSRPNRAPPGVPSRSGQASPSRPESPRPPFDL",,,binds
